Assay results: US9249087B2, “HDAC inhibitors and therapeutic methods using the same” (THE BOARD OF TRUSTEES OF THE UNIVERSITY OF ILLINOIS, priority 2011, dated 2016)
The structures given here were assigned with low confidence; some may be wrong.

By UniProt entry, the sequences of proteins in these tests, tags left out.
UniProt Q9UBN7, whole entry: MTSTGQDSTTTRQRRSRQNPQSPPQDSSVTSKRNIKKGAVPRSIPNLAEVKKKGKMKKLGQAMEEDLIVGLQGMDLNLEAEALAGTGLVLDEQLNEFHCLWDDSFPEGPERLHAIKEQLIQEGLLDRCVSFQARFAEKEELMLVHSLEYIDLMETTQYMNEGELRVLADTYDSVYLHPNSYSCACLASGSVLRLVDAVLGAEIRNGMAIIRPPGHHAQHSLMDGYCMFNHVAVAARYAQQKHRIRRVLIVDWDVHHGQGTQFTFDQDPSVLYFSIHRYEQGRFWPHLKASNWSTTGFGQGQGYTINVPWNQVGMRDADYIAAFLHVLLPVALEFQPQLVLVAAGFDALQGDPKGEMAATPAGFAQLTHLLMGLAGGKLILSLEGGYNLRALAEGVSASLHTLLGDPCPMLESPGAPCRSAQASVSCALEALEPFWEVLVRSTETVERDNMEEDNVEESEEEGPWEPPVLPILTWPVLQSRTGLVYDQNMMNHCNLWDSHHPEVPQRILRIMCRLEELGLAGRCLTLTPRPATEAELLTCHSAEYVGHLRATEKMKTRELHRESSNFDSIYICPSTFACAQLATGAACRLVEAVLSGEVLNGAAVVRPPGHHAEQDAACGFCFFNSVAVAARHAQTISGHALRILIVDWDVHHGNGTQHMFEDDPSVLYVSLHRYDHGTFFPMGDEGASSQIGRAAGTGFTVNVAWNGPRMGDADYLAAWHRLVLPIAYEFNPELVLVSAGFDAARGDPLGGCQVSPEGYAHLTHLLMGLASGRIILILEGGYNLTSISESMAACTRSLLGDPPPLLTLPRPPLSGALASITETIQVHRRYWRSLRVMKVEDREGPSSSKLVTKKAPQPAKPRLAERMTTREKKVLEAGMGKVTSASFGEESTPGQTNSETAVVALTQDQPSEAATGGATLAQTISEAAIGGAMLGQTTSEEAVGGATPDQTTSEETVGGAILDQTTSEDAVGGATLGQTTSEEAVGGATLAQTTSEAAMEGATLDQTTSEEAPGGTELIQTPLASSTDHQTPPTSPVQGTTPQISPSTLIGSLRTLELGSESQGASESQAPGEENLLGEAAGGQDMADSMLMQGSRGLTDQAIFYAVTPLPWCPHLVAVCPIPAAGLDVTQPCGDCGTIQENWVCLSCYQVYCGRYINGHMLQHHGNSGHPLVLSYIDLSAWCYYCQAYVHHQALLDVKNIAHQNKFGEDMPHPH

Target: Human HDAC6 (Homo sapiens (Human), UniProt Q9UBN7)
Assay: HDAC6 fluorogenic peptide deacetylation inhibition assay
Assay type: biochemical

Row | HDAC6 Selectivity (HDAC1/HDAC6) (ratio HDAC1 IC50/HDAC6 IC50) | SMILES | BEI (binding efficiency index, BEI=pIC50/MW, MW in kDa)
1 | 1.48 | O=C(NO)c1ccc(CN(c2ccccc2)c2ccccc2)cc1 | –
2 | – | O=C(NO)c1ccc(Cn2cc(Cc3ccccc3)c3ccccc32)cc1 | 20.9
